PubChem BioAssay AID504791 | Drosophila RNAi Screening Center, 2011
In all, the deposit lists about 23,000 reagents; shown is a random part of those with a known target gene and a result. Over the whole deposit, 199 (0.86%) were called active. 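Plate-scaled ratios behind the calls are not deposited; printed light signals are raw; many rows marked increased or decreased are still called inactive.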 Entries without a mark were called inactive. Names joined by + are all predicted targets of the reagent. Not stated in the record: the direction of the score.

Aim: 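Genes of the fly required for silencing by miRNA, siRNA or endo-siRNA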 (primary screen)
System: Drosophila S2-derived reporter cells
Knock-down reagent: long dsRNA against Drosophila genes, about 150-250 ng dsRNA per well (siRNA assay); about 80-120 ng (miRNA assay)
Time to read-out: about 5 days (siRNA assay); about 4 days (miRNA assay)
Treatment: copper sulfate induction of reporters: 25 µM (siRNA assay); 200 mM stated (miRNA assay), 1-2 days before reading
Detection: 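Per-well ratio of Renilla over firefly light, expressed relative to that plate's average ratio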
Units: stable assay Renilla, run 1 in luminescence; stable assay firefly, run 1 in luminescence
Hit rule: 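First-pass picks had plate-scaled ratios over 1.5 for the siRNA assay, over 1.6 for the miRNA assay, or under 0.6; two distinct dsRNAs had to score alike on retest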

TwdlK (GeneID 43205) [DRSC16045] → stable assay Renilla, run 1: 4980; stable assay firefly, run 1: 3.62e5
CG14142 (GeneID 39261) [DRSC10145] → stable assay Renilla, run 1: 6662; stable assay firefly, run 1: 3.97e5
CG31064 (GeneID 43277) [DRSC14756] → stable assay Renilla, run 1: 6148; stable assay firefly, run 1: 4.22e5
CG31064 (GeneID 43277) [DRSC15941] → stable assay Renilla, run 1: 6978; stable assay firefly, run 1: 3.93e5
CG31064 (GeneID 43277) [DRSC15942] → stable assay Renilla, run 1: 7260; stable assay firefly, run 1: 4.65e5
CG31064 (GeneID 43277) [DRSC15943] → stable assay Renilla, run 1: 8129; stable assay firefly, run 1: 4.08e5
Osi7 (GeneID 40761) [DRSC12176] → stable assay Renilla, run 1: 6726; stable assay firefly, run 1: 3.64e5
a6 (GeneID 31127) [DRSC18733] → stable assay Renilla, run 1: 8387; stable assay firefly, run 1: 5.60e5
CG11291 (GeneID 37541) [DRSC04097] → stable assay Renilla, run 1: 6599; stable assay firefly, run 1: 4.45e5

Records above whose target name starts with C or c (6):
CG14142 (GeneID 39261) [DRSC10145] → stable assay Renilla, run 1: 6662; stable assay firefly, run 1: 3.97e5
CG31064 (GeneID 43277) [DRSC14756] → stable assay Renilla, run 1: 6148; stable assay firefly, run 1: 4.22e5
CG31064 (GeneID 43277) [DRSC15941] → stable assay Renilla, run 1: 6978; stable assay firefly, run 1: 3.93e5
CG31064 (GeneID 43277) [DRSC15942] → stable assay Renilla, run 1: 7260; stable assay firefly, run 1: 4.65e5
CG31064 (GeneID 43277) [DRSC15943] → stable assay Renilla, run 1: 8129; stable assay firefly, run 1: 4.08e5
CG11291 (GeneID 37541) [DRSC04097] → stable assay Renilla, run 1: 6599; stable assay firefly, run 1: 4.45e5

The results go on:
LysB (GeneID 38125) [DRSC08673] → stable assay Renilla, run 1: 5854; stable assay firefly, run 1: 3.30e5
Cdk7 (GeneID 31441) [DRSC18451] → stable assay Renilla, run 1: 5099; stable assay firefly, run 1: 3.58e5
Cdk7 (GeneID 31441) [DRSC23327] → stable assay Renilla, run 1: 3523; stable assay firefly, run 1: 2.75e5
disp (GeneID 44274) [DRSC12376] → stable assay Renilla, run 1: 7180; stable assay firefly, run 1: 3.58e5
CG13048 (GeneID 39789) [DRSC09929] → stable assay Renilla, run 1: 7179; stable assay firefly, run 1: 3.70e5
Fnta (GeneID 33682) [DRSC00557] → stable assay Renilla, run 1: 12386; stable assay firefly, run 1: 1.81e5
fz4 (GeneID 31659) [DRSC18780] → stable assay Renilla, run 1: 6062; stable assay firefly, run 1: 2.86e5
CG14495 (GeneID 37056) [DRSC06466] → stable assay Renilla, run 1: 6474; stable assay firefly, run 1: 3.32e5
Noc3 (GeneID 40870) [DRSC12535] → stable assay Renilla, run 1: 8551; stable assay firefly, run 1: 4.12e5
CG10137 (GeneID 35241) [DRSC02014] → stable assay Renilla, run 1: 33413; stable assay firefly, run 1: 1.30e6
CG10137 (GeneID 35241) [DRSC02015] → stable assay Renilla, run 1: 7470; stable assay firefly, run 1: 3.57e5
sw + Sdic4 + Sdic3 + 2 more [DRSC20696] → stable assay Renilla, run 1: 5910; stable assay firefly, run 1: 5.07e5
CG3987 (GeneID 41822) [DRSC15531] → stable assay Renilla, run 1: 7938; stable assay firefly, run 1: 4.08e5
CG7251 (GeneID 33791) [DRSC03039] → stable assay Renilla, run 1: 29816; stable assay firefly, run 1: 2.40e5
CG31988 (GeneID 326182) [DRSC22491] → stable assay Renilla, run 1: 3075; stable assay firefly, run 1: 3.02e5
CG11666 (GeneID 50121) [DRSC22379] → stable assay Renilla, run 1: 11484; stable assay firefly, run 1: 6.34e5
CG30375 (GeneID 246575) [DRSC06834] → stable assay Renilla, run 1: 5916; stable assay firefly, run 1: 3.10e5
CG13097 (GeneID 34184) [DRSC02199] → stable assay Renilla, run 1: 7099; stable assay firefly, run 1: 6.27e5
Tmlh (GeneID 42421) [DRSC15563] → stable assay Renilla, run 1: 6674; stable assay firefly, run 1: 2.82e5
